Results deposited as PubChem BioAssay AID1259308 (NCATS, 2017).

Test: 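Genes whose loss raises luciferase production in HEK293 cells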 (primary screen)
Cell system: human HEK293 embryonic kidney cells stably expressing firefly luciferase (HEK-CMV-Luc2-Hygro)
Reagents: single siRNA against human genes, 0.8 pmol siRNA per well
Duration: 72 h
Measurement: 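Luciferase light (ONE-Glo) measured on one replicate plate set and viability (CellTiter-Glo) on the other, scaled to a negative control siRNA, with robust z-scores and luciferase per cell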
Scale: total luciferase, z-score and total luciferase, % of control: higher = more reporter protein produced; luciferase per cell, z-score: higher = more reporter output per viable cell
Rule for the call: 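An siRNA counts as active if its total luciferase robust z-score exceeds 3; genes with two or more such siRNAs out of three were retested with fresh siRNAs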
Meaning of the calls: active = raised luciferase; inactive = no rise
Shown is a random part of about 59,000 deposited reagents. About 1,510 of all reagents (2.6%) count as active. 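Calls use total luciferase alone and ignore viability, so some active siRNAs may act by altering cell number.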 Further read-outs or replicates are left out here.

Target gene | PubChem SID | total luciferase, z-score | total luciferase, % of control | luciferase per cell, z-score | activity call
NDUFS8 | SID160777916 | -0.367 | 74.6 | -0.634 | inactive
NDUFS8 | SID160777917 | -0.749 | 67 | -0.633 | inactive
NDUFS8 | SID160777918 | -0.981 | 62.4 | 0.38 | inactive
STK33 | SID160748338 | -0.105 | 79.8 | 0.0655 | inactive
STK33 | SID160748339 | -0.149 | 78.9 | -0.657 | inactive
STK33 | SID160748340 | -0.732 | 67.3 | 0.376 | inactive
CDC42SE2 | SID160745457 | 0.491 | 91.7 | 0.771 | inactive
CDC42SE2 | SID160745458 | 0.628 | 94.4 | 1.35 | inactive
CDC42SE2 | SID160745459 | 1.46 | 111 | 2.32 | inactive
UACA | SID160742878 | 0.0936 | 83.7 | 0.343 | inactive
UACA | SID160742879 | -0.127 | 79.4 | 0.789 | inactive
UACA | SID160742880 | 0.876 | 99.3 | 0.632 | inactive
UBE3C | SID160722814 | 1.24 | 107 | 0.749 | inactive
UBE3C | SID160722816 | 0.38 | 89.4 | 0.794 | inactive
UBE3C | SID160722817 | 1.34 | 108 | 0.643 | inactive
PDE6C | SID160714002 | 0.974 | 101 | 0.545 | inactive
PDE6C | SID160714003 | 0.0332 | 82.5 | 0.385 | inactive
PDE6C | SID160731375 | -1.08 | 60.4 | -0.693 | inactive
GRIN2B | SID160774514 | -0.363 | 74.7 | -0.376 | inactive
GRIN2B | SID160774523 | -0.284 | 76.2 | -0.898 | inactive
GRIN2B | SID160774534 | -1.28 | 56.3 | -0.38 | inactive
ALG1L2 | SID160733904 | 0.511 | 92.1 | 0.348 | inactive
ALG1L2 | SID160769399 | 0.0749 | 83.4 | 0.342 | inactive
ALG1L2 | SID160769400 | 2.53 | 132 | 2.07 | inactive

A few values from the entries so far:
Under “luciferase per cell, z-score”, STK33 [SID160748338] reads 0.0655
Under “total luciferase, z-score”, PDE6C [SID160714002] shows 0.974
Value of UBE3C [SID160722814] under “luciferase per cell, z-score”: 0.749
